Results: publication PMC9462472
Results are given in words; binding and its absence hold for the method and conditions named. In cells and extracts the contact can be indirect. Some results given as binding are weak or reduced against the parent protein; the word gives no strength.

Chains of the proteins cited; added tags and fusions are not shown.
UniProt Q62407: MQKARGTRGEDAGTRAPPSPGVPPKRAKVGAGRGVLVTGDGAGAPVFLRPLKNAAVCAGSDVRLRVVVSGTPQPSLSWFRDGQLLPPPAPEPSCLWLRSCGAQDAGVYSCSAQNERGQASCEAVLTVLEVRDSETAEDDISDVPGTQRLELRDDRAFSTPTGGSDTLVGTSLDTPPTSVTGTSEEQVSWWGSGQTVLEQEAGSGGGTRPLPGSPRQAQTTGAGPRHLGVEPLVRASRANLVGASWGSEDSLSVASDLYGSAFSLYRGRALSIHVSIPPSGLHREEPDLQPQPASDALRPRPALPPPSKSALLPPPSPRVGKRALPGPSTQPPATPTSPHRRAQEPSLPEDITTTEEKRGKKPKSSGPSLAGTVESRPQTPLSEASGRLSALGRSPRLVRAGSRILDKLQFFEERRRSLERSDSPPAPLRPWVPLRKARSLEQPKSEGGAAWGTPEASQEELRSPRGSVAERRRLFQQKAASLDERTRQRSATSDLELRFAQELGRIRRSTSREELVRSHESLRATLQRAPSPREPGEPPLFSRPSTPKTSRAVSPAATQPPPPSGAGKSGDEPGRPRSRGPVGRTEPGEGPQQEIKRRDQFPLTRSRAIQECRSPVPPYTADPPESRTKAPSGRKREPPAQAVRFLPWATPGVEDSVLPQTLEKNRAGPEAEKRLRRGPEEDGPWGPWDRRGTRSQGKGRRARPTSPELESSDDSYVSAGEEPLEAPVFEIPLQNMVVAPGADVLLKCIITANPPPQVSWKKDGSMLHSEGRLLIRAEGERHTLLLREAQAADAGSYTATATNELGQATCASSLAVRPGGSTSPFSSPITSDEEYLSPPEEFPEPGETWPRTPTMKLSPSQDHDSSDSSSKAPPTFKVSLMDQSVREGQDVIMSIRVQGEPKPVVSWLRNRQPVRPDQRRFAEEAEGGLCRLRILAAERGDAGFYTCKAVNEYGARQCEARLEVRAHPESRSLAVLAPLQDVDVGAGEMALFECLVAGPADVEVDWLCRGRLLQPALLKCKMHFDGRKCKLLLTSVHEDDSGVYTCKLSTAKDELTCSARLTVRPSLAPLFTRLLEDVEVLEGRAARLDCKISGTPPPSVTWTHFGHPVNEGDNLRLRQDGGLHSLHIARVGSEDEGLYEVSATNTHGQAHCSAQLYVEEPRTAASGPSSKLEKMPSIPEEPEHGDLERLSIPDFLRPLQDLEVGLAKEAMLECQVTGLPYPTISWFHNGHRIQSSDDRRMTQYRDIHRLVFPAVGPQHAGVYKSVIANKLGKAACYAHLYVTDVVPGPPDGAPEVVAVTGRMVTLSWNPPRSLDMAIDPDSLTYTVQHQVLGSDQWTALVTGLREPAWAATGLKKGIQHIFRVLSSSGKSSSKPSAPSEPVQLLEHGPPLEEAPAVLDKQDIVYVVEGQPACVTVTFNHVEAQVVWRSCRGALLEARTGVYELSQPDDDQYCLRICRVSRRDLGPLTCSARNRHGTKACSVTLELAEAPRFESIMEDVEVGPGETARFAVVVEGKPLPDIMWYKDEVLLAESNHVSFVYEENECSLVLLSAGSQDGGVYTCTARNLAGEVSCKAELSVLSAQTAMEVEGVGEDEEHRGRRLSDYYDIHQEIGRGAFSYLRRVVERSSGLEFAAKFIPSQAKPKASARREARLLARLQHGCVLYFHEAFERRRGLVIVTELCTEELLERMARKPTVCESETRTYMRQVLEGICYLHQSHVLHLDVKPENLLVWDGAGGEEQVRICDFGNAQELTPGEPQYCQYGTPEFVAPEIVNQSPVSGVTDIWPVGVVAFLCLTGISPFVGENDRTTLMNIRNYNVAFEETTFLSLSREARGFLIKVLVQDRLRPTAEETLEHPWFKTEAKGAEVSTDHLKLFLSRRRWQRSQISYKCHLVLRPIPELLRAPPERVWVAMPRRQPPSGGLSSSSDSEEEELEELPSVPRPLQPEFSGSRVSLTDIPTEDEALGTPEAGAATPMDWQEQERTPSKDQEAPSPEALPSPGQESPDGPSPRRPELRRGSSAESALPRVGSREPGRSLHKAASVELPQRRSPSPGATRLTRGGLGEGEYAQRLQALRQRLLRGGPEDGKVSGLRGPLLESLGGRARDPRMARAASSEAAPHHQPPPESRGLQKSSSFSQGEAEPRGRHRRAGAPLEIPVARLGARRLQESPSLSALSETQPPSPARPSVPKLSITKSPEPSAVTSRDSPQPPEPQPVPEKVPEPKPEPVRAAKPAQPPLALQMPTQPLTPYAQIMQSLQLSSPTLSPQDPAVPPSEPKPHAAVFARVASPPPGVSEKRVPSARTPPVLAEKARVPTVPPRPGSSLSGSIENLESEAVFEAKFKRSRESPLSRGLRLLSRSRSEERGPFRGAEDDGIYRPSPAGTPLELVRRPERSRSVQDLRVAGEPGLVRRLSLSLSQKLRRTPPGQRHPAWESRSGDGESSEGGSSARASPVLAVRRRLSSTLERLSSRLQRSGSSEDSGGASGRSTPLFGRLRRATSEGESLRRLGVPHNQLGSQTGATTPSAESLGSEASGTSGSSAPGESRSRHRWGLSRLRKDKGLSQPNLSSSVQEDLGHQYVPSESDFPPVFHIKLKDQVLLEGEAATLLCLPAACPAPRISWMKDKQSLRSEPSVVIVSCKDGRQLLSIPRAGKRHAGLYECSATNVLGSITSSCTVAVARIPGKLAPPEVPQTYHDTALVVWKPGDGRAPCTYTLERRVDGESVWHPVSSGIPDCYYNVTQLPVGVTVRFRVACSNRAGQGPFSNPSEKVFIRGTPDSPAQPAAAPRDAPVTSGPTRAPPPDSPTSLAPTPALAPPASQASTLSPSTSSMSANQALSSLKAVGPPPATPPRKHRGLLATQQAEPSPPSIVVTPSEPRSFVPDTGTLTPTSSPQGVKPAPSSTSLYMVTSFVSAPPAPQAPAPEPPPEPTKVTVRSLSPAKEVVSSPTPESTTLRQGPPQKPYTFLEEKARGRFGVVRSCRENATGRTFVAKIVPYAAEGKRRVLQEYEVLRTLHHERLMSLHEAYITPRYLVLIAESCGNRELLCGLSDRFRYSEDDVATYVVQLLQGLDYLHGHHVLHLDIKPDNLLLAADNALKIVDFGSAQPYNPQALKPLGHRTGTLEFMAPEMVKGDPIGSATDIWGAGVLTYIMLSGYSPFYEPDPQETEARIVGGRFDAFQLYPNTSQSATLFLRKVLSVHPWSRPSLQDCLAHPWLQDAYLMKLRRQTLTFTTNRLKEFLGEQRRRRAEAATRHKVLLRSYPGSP

Molecular target: Striated preferentially expressed protein kinase, SPEG-β isoform (mouse (endogenous in C2C12 myotubes and mouse muscle)) (UniProt Q62407)
Experiment: co-IP; endogenous proteins in lysates of differentiated C2C12 myotubes, soleus and triceps; IP with anti-SPEG or anti-DNM2 antibody at 4°C for 12 to 24 hours, Dynabead Protein G beads, washed 3 times with co-IP buffer with 0.1% CHAPS; immunoblot

binding: binds
B1: dynamin-2 (protein, UniProt P39054 1-870)
chain: MGNRGMEELIPLVNKLQDAFSSIGQSCHLDLPQIAVVGGQSAGKSSVLENFVGRDFLPRGSGIVTRRPLILQLIFSKTEYAEFLHCKSKKFTDFDEVRQEIEAETDRVTGTNKGISPVPINLRVYSPHVLNLTLIDLPGITKVPVGDQPPDIEYQIKDMILQFISRESSLILAVTPANMDLANSDALKLAKEVDPQGLRTIGVITKLDLMDEGTDARDVLENKLLPLRRGYIGVVNRSQKDIEGKKDIRAALAAERKFFLSHPAYRHMADRMGTPHLQKTLNQQLTNHIRESLPTLRSKLQSQLLSLEKEVEEYKNFRPDDPTRKTKALLQMVQQFGVDFEKRIEGSGDQVDTLELSGGARINRIFHERFPFELVKMEFDEKDLRREISYAIKNIHGVRTGLFTPDLAFEAIVKKQVVKLKEPCLKCVDLVIQELISTVRQCTSKLSSYPRLREETERIVTTYIREREGRTKDQILLLIDIEQSYINTNHEDFIGFANAQQRSTQLNKKRAIPNQGEILVIRRGWLTINNISLMKGGSKEYWFVLTAESLSWYKDEEEKEKKYMLPLDNLKIRDVEKGFMSNKHVFAIFNTEQRNVYKDLRQIELACDSQEDVDSWKASFLRAGVYPEKDQAENEDGAQENTFSMDPQLERQVETIRNLVDSYVAIINKSIRDLMPKTIMHLMINNTKAFIHHELLAYLYSSADQSSLMEESAEQAQRRDDMLRMYHALKEALNIIGDISTSTVSTPVPPPVDDTWLQNTSGHSPTPQRRPVSSVHPPGRPPAVRGPTPGPPLIPMPVGATSSFSAPPIPSRPGPQSVFANNDPFSAPPQIPSRPARIPPGIPPGVPSRRAPAAPSRPTIIRPAEPSLLD
